Source: the supplement of paper PMC8975748
Structures can show the parent of a compound that is named as a salt. ± gives the standard deviation of the averaged measurements. This is one part of the list. These are raw signals, not scaled to a control.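 The yeast community starts from one strain carrying four plasmids, each with an amino-acid or uracil synthesis gene and a fluorescent protein. Random plasmid loss creates mixed prototroph and auxotroph subpopulations. Cells were fixed and counted by automated confocal fluorescence imaging, and DMSO-treated wells served as the vehicle reference.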

What follows are compounds tested on Saccharomyces cerevisiae BY4741 SeMeCo community (assay: imaged cell count per well (cells); higher = more cells). Conditions: 10 µM; 24 h; SM minimal medium.
Procedure: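 Same SeMeCo high-content imaging drug screen: Selleck FDA-approved drugs at 10 µM, 24 h in SM medium, 384-well plates, 3 replicates.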

Structure (SMILES) | imaged cell count per well
NS(=O)(=O)Cc1noc2ccccc12 [Zonisamide] | 21100 ± 7800
Cc1cc(=O)n(-c2ccccc2)n1C [Antipyrine] | 23200 ± 2600
CCCN[C@H]1CCc2nc(N)sc2C1 [Pramipexole dihydrochloride] | 27500 ± 2200
C[C@](N)(Cc1ccc(O)c(O)c1)C(=O)O [Methyldopa] | 26600 ± 6700
CCc1nc(N)nc(N)c1-c1ccc(Cl)cc1 [Pyrimethamine] | 26500 ± 6400
CCC(C)n1ncn(-c2ccc(N3CCN(c4ccc(OCC5COC(Cn6cncn6)(c6ccc(Cl)cc6Cl)O5)cc4)CC3)cc2)c1=O (stereo not drawn) [Itraconazole] | 6670 ± 1700
CC[C@@]1(O)C(=O)OCc2c1cc1n(c2=O)Cc2cc3cc(O)ccc3nc2-1 [Hydroxy Camptothecine] | 24200 ± 3200
O=C(O)c1cn(C2CC2)c2cc(N3CCNCC3)c(F)cc2c1=O [Ciprofloxacin hydrochloride hydrate] | 21600 ± 2100
N=C(N)NC(=N)N1CCOCC1 [Moroxydine HCl] | 24600 ± 1900
CN(C)CCC=C1c2ccccc2C(C)(C)c2ccccc21 [Melitracen hydrochloride] | 31700 ± 8300
C[C@H]1NCc2cc(-c3ccc4c(=O)c(C(=O)O)cn(C5CC5)c4c3OC(F)F)ccc21 [Garenoxacin] | 24400 ± 2100
O=C(CCCN1CCC(O)(c2ccc(Cl)cc2)CC1)c1ccc(F)cc1 [Haloperidol] | 24700 ± 7500
CCC1(c2ccccc2)C(=O)NCNC1=O [Primidone] | 16900 ± 1900
COC(=O)C1=C(C)NC(C)=C(C(=O)OC(C)(C)CN(C)CCC(c2ccccc2)c2ccccc2)C1c1cccc([N+](=O)[O-])c1 (stereo not drawn) [Lercanidipine hydrochloride] | 27300 ± 6200
CC1=C(C(=O)OCCN(Cc2ccccc2)c2ccccc2)C(c2cccc([N+](=O)[O-])c2)C(P2(=O)OCC(C)(C)CO2)=C(C)N1 (stereo not drawn) [Efonidipine] | 18400 ± 11000
c1ccc(C2CN3CCSC3=N2)cc1 (stereo not drawn) [Tetramisole HCl] | 25700 ± 2600
O=C(Cn1cnnn1)N[C@@H]1C(=O)N2C(C(=O)O)=C(CSc3nncs3)CS[C@H]12 [Ceftezole] | 28600 ± 3500
N=C(N)NC(=O)c1nc(Cl)c(N)nc1N [Amiloride HCl] | 17400 ± 8200
O=c1n(CCCN2CCN(c3cccc(Cl)c3)CC2)nc2ccccn12 [Trazodone HCl] | 22200 ± 3400

11 neighbouring entries from above, for reference:
Structure (SMILES) | imaged cell count per well
N=C(N)NC(=N)N1CCOCC1 [Moroxydine HCl] | 24600 ± 1900
CN(C)CCC=C1c2ccccc2C(C)(C)c2ccccc21 [Melitracen hydrochloride] | 31700 ± 8300
C[C@H]1NCc2cc(-c3ccc4c(=O)c(C(=O)O)cn(C5CC5)c4c3OC(F)F)ccc21 [Garenoxacin] | 24400 ± 2100
O=C(CCCN1CCC(O)(c2ccc(Cl)cc2)CC1)c1ccc(F)cc1 [Haloperidol] | 24700 ± 7500
CCC1(c2ccccc2)C(=O)NCNC1=O [Primidone] | 16900 ± 1900
COC(=O)C1=C(C)NC(C)=C(C(=O)OC(C)(C)CN(C)CCC(c2ccccc2)c2ccccc2)C1c1cccc([N+](=O)[O-])c1 (stereo not drawn) [Lercanidipine hydrochloride] | 27300 ± 6200
CC1=C(C(=O)OCCN(Cc2ccccc2)c2ccccc2)C(c2cccc([N+](=O)[O-])c2)C(P2(=O)OCC(C)(C)CO2)=C(C)N1 (stereo not drawn) [Efonidipine] | 18400 ± 11000
c1ccc(C2CN3CCSC3=N2)cc1 (stereo not drawn) [Tetramisole HCl] | 25700 ± 2600
O=C(Cn1cnnn1)N[C@@H]1C(=O)N2C(C(=O)O)=C(CSc3nncs3)CS[C@H]12 [Ceftezole] | 28600 ± 3500
N=C(N)NC(=O)c1nc(Cl)c(N)nc1N [Amiloride HCl] | 17400 ± 8200
O=c1n(CCCN2CCN(c3cccc(Cl)c3)CC2)nc2ccccn12 [Trazodone HCl] | 22200 ± 3400

Going on with the list:

Structure (SMILES) | imaged cell count per well
CCN(CC)CCNC(=O)c1cc(Cl)c(N)cc1OC [Metoclopramide HCl] | 23200 ± 13000
CC[C@@]1(O)C(=O)OCc2c1cc1n(c2=O)Cc2cc3cc(O)ccc3nc2-1 [(S)-10-Hydroxycamptothecin] | 25300 ± 3600
CCC[C@@H]1C[C@@H](C(=O)N[C@@H]([C@H]2O[C@H](SC)[C@H](O)[C@@H](O)[C@H]2O)[C@@H](C)O)N(C)C1 [Lincomycin HCl] | 25000 ± 4200
CO[C@H]1C[C@@H]2CC[C@@H](C)[C@@](O)(O2)C(=O)C(=O)N2CCCC[C@H]2C(=O)O[C@H]([C@H](C)C[C@@H]2CC[C@@H](OCCO)[C@H](OC)C2)CC(=O)[C@H](C)/C=C(\C)[C@@H](O)[C@@H](OC)C(=O)[C@H](C)C[C@H](C)/C=C/C=C/C=C/1C [Everolimus (RAD001)] | 9540 ± 330
C[C@H](NCc1ccc(OCc2cccc(F)c2)cc1)C(N)=O [Safinamide] | 16600 ± 3700
Nc1nc2ccc(OC(F)(F)F)cc2s1 [Riluzole] | 18500 ± 7200
CN1CCCN=C1/C=C/c1cccs1 [Pyrantel Pamoate] | 18900 ± 500
CCN1CCC[C@H]1CNC(=O)c1cc(S(N)(=O)=O)ccc1OC [Levosulpiride] | 20900 ± 2000
CCCN1CCCC[C@H]1C(=O)Nc1c(C)cccc1C [Ropivacaine] | 27300 ± 2600
CC(=O)[C@@]1(O)CC[C@H]2[C@@H]3CCC4=CC(=O)CCC4=C3[C@@H](c3ccc(N(C)C)cc3)C[C@@]21C [Ulipristal] | 26800 ± 3500
O=c1[nH]c(=O)n([C@H]2C[C@H](O)[C@@H](CO)O2)cc1I [Idoxuridine] | 26700 ± 6400
O=C1NCC2(CCN(CCc3ccccc3)CC2)O1 [Fenspiride HCl] | 16800 ± 7400
O=C1C(O)=C([C@H]2CC[C@H](c3ccc(Cl)cc3)CC2)C(=O)c2ccccc21 [Atovaquone] | 25600 ± 800
O=C1N=C(O)NC1(c1ccccc1)c1ccccc1 [Phenytoin Sodium] | 17400 ± 2700
O=c1[nH]cnc2c1ncn2[C@@H]1O[C@H](CO)[C@@H](O)[C@H]1O [Isoprinosine] | 33100 ± 6400
Cc1c(S(=O)(=O)O)oc2c1C(=O)C(=O)c1c-2ccc2c1CCCC2(C)C [Tanshinone IIA sulfonate (sodium)] | 15900 ± 5900
Cc1ccccc1OCC(O)CO (stereo not drawn) [Mephenesin] | 26500 ± 3400
CC[C@H]1OC(=O)C[C@@H](O)[C@H](C)[C@@H](O[C@@H]2O[C@H](C)[C@@H](O)[C@H](N(C)C)[C@H]2O)[C@@H](CCN2C[C@H](C)C[C@H](C)C2)C[C@@H](C)C(=O)/C=C/C(C)=C/[C@@H]1CO[C@@H]1O[C@H](C)[C@@H](O)[C@@H](OC)[C@H]1OC [Tilmicosin phosphate] | 28100 ± 1400
N=C(N)NC(=O)c1nc(Cl)c(N)nc1N [Amiloride HCl dihydrate] | 24100 ± 2800
